Literature values as cited in US8822429B2, “Citicoline for the treatment of glaucoma and ocular hypertension” (Omikron Italia S.r.l., priority 2010, dated 2014).
At least one compound was matched to its structure with a doubt left.

Tested on: glaucomatous patients
Conditions: computerized campimetry, PERG and VEP; intramuscular 1000 mg/die or oral 1600 mg/die

SMILES: C[N+](C)(C)CCOP(=O)(O)OP(=O)([O-])OC[C@H]1O[C@@H](n2ccc(N)nc2=O)[C@H](O)[C@@H]1O [Citicoline, cytidine-5′-diphosphocholine]
- effect on visual field and entire visual pathway in glaucomatous patients: positive effect
